Screen size: about 320,000 compounds; about 22,000 (6.9%) were called active. The shares of active, inactive and inconclusive entries below differ from those in the screen. Calls come from the whole dose curve; as a rule, active = well fitted inhibition curve with a large enough effect; inconclusive = small, poorly fitted or top-dose-only effect, or another doubt; inactive = no such curve, though single readings can be large or run the other way. A potency beside an inconclusive call is a rough fit, not a confirmed value.
Experiment: Primary qHTS for delayed death inhibitors of the malarial parasite plastid, 96 hour incubation
Details: P. falciparum luciferase reporter growth; series mostly up to 28.7 µM
In short: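 Infected RBCs, 2% Hct / 0.05% parasitemia final; luciferase-reporter P. falciparum; cpd 96 h, 37 C, 5% CO2; luciferase detection reagent; luminescence.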
% is set by controls: 0 for no effect and ±100 for the full control effect; potency is the fitted concentration of half-maximal effect.

Row | SMILES | Potency | activity change, negative = inhibition
1 | COc1ccc(/C=N/NC(=O)c2nc(-c3ccccc3)cc(-c3ccccc3)n2)cc1O | inconclusive: 18.5 µM [inhibitor, single point] | 
2 | O=c1cc(O)c2sc(Nc3ccc(Cl)c(F)c3)nc2[nH]1 | active: 5.86 µM | 
3 | CC1CCCCC12NC(=O)N(CC(=O)c1ccc3c(c1)OCO3)C2=O (stereo not given) | inconclusive: 0.0329 µM [inhibitor, full curve, poor fit] | 
4 | CCOCCCNC(=O)CCNS(=O)(=O)c1ccc(C)cc1 | active: 9.28 µM | 
5 | Cc1csc(/C(=N/OC(=O)c2ccco2)C(N)=O)n1 | inconclusive: 11.7 µM [inhibitor, single point] | 
6 | COc1ccc(NC(=O)CSc2nc3c(c(=O)n2-c2ccc(F)cc2)SCC3)cc1 | active: 10.4 µM | 
7 | COC(=O)c1c(C(=O)c2ccc(Br)cc2)n(C)c2ccccc12 | inconclusive: 18.5 µM [inhibitor, single point] | 
8 | O=C(COC(=O)CCC(=O)c1cccs1)NC1CCCCC1 | inconclusive: 14.7 µM [inhibitor, partial curve] | 
9 | CCOc1ccccc1CN1CCNC(=O)C1CC(=O)N(C)C1CCOCC1 (stereo not given) | inactive | 
10 | COc1cc(C2N(Cc3ccccc3)CCN2Cc2ccccc2)ccc1OC(C)=O | inconclusive: 18.5 µM [inhibitor, single point] | 
11 | COc1ccc(CCC(=O)Nc2cccc(S(=O)(=O)N3CCCCCC3)c2)cc1OC | inconclusive: 11.7 µM [inhibitor, single point] | 
12 | CCC(=O)N(C)/C=C1\Sc2ccccc2C1=O | inactive | 
13 | COc1cc(OC)c(C#N)c(S(=O)(=O)Cc2ccccc2)c1 | inactive | 
14 | Cc1cc(C)cc(NS(=O)(=O)c2cc(C(=O)NCc3ccccn3)ccc2Cl)c1 | inconclusive: 16.5 µM [inhibitor, single point] | 
15 | CCOC(=O)c1sc(=S)n(-c2ccccc2)c1SC | active: 13.1 µM | 
16 | CCOP(=S)(OCC)Oc1nc(Cl)c(Cl)cc1Cl | inconclusive: 2.33 µM [inhibitor, single point] | 
17 | CC1(C)CC(=O)C([N+](=O)[O-])=C(NCCCO)C1 | active: 11.7 µM | 
18 | CCS(=O)(=O)N1CCN(c2ccccc2)CC1 | inactive | 
19 | Cc1cccc(NC(=O)CSc2nsc(SCC(=O)Nc3cccc(C)c3)c2C#N)c1 | inactive | 
20 | CCOC(=O)C1CCN(C(=O)CSc2nnc(-c3ccco3)n2-c2ccccc2)CC1 | inconclusive: 0.262 µM [inhibitor, full curve, poor fit] | 
21 | CCC(NC(=O)c1cc(COc2c(F)cccc2F)on1)c1ccncc1 (stereo not given) | inactive | 
22 | CCC(C)(C)n1nnnc1C(c1cccs1)N1CCc2ccccc21 (stereo not given) |  | inactive: 7.59% [at 5.75 µM]
23 | CC1CC(C)CN(CCOc2ccccc2-c2ccccc2)C1 (stereo not given) | active: 10.4 µM | 
24 | COc1ccc(S(=O)(=O)N(C)C)cc1NCC(=O)Nc1cccc(C#N)c1 | active: 11.7 µM | 
25 | Cc1ccccc1Cn1cc(NC(=O)c2noc3c2CC(C(C)(C)C)CC3)cn1 (stereo not given) | inconclusive: 10.4 µM [inhibitor, single point] | 

3 entries picked at random from the list so far, as already listed:
Row | SMILES | Potency | activity change, negative = inhibition
10 | COc1cc(C2N(Cc3ccccc3)CCN2Cc2ccccc2)ccc1OC(C)=O | inconclusive: 18.5 µM [inhibitor, single point] | 
15 | CCOC(=O)c1sc(=S)n(-c2ccccc2)c1SC | active: 13.1 µM | 
3 | CC1CCCCC12NC(=O)N(CC(=O)c1ccc3c(c1)OCO3)C2=O (stereo not given) | inconclusive: 0.0329 µM [inhibitor, full curve, poor fit] | 

The listing continues.

Row | SMILES | Potency | activity change, negative = inhibition
26 | COC(=O)c1ccc(COc2ccc(C3C4=C(CCCC4=O)Nc4onc(C)c43)cc2)cc1 (stereo not given) | inconclusive: 18.5 µM [inhibitor, single point] | 
27 | CNC(=S)N(Cc1cccs1)Cc1cc2cc(OC)ccc2[nH]c1=O | active: 7.38 µM | 
28 | COc1ccc(CC(=O)Nc2ccc(F)c(Cl)c2)cc1S(=O)(=O)N1CCOCC1 | inconclusive: 11.7 µM [inhibitor, partial curve, poor fit] | 
29 | Cc1cccc(NC(=O)Nc2nnc(N3CCCCC3C)s2)c1C (stereo not given) | active: 2.08 µM | 
30 | COc1ccccc1NC(=O)Nc1ccc(Cc2ccncc2)cc1 | inactive | 
31 | O=C(CSc1nc2[nH]ncc2c(=O)[nH]1)NCCc1ccccc1 | inactive | 
32 | CCc1ccc(N2CCN(CCNC(=O)Nc3ccccc3)CC2)cc1 | inconclusive: 13.1 µM [inhibitor, single point] | 
33 | CCO[C@H]1OC(C(=O)N2CCCCCCC2)=C[C@@H](c2ccccc2)[C@@H]1CCCO | inactive | 
34 | Cc1cc(CN(C)C(=O)c2cc(COc3ccc4ncccc4c3)on2)on1 | inactive | 
35 | COC(=O)NC(=C(Cl)Cl)S(=O)(=O)c1ccccc1 | inconclusive: 0.329 µM [inhibitor, full curve, poor fit] | 
36 | Cc1cc(C)n(/N=C/c2ccccc2)c(=O)c1C#N | inactive | 
37 | O=C(Nc1ccc(S(=O)(=O)Nc2nccs2)cc1)c1nn(-c2ccc(F)cc2)ccc1=O | inconclusive: 18.5 µM [inhibitor, single point] | 
38 | O=C(CN1CCN(C/C=C/c2ccccc2)CC1)NCc1ccc(Cl)cc1 | inconclusive: 10.4 µM [inhibitor, partial curve, poor fit] | 
39 | Cc1ccc(NC(=O)CC(NCC2CCCO2)C(=O)O)cc1C (stereo not given) | inactive | 
40 | O=C(CCc1ccc(S(=O)(=O)N2CCOCC2)cc1)Nc1ccc2c(c1)OCCO2 | inconclusive: 9.28 µM [inhibitor, partial curve, poor fit] | 
41 | Cc1ccc(Cl)cc1N=C(N)N=C(N)N | inconclusive: 0.37 µM [inhibitor, full curve, poor fit] | 
42 | COc1ccc2c(c1)C(c1ccccc1)NC(=O)C2 (stereo not given) | inactive | 
43 | COc1cccc(C(=O)Nc2ccc(S(=O)(=O)N3CCCCC3)cc2)c1OC | active: 5.22 µM | 
44 | CCC1=NN(C(=O)c2cccc([N+](=O)[O-])c2)C(O)(c2ccc(C)cc2)C1 (stereo not given) | inactive | 
45 | COc1cccc(C2CC(c3cccc(Br)c3)n3ncnc3N2)c1 (stereo not given) | active: 11.7 µM | 
46 | CC[N+](CC)(CC)CC[C@](O)(c1ccccc1)C1CCCCC1 | active: 5.73 µM | 
47 | Cc1ccc(C(c2nnnn2CS(=O)(=O)c2ccc(C)cc2)N2CCCC2)cc1 (stereo not given) | inconclusive: 0.0329 µM [inhibitor, full curve, poor fit] | 
48 | Cc1ccccc1N/N=C1\CCCNC1=O | inactive | 
49 | CS(=O)(=O)c1ccc(Cl)c(NC(=O)COC(=O)CNC(=O)c2ccc(Br)o2)c1 | inconclusive: 5.86 µM [inhibitor, partial curve, poor fit] | 
50 | O=c1oc2ccccc2c(Nc2ccccc2)c1CN1CCCCC1 | inconclusive: 11.7 µM [inhibitor, single point] | 

Row | SMILES | Potency | activity change, negative = inhibition
51 | Fc1ccc2nc(Nc3nc4cc5c(cc4s3)OCO5)sc2c1 | inactive | 
52 | COc1ccccc1CC(=O)Nc1cc(C)ccn1 | inconclusive: 11.7 µM [inhibitor, single point] | 
53 | CN(C)c1ccc(/C=N/NC(=O)C(=O)/C=C2\NC3(CCCC3)Cc3ccccc32)cc1 | active: 2.62 µM | 
54 | O=C(c1ccc([N+](=O)[O-])o1)N1CCN(c2nc3c(F)cc(F)cc3s2)CC1 | active: 0.329 µM | 
55 | CCOC(=O)C1CCN(C(=S)Nc2ccc(C)cc2)CC1 | inconclusive: 0.0029 µM [inhibitor, full curve, poor fit] | 
56 | CC1CCCN(C(=O)c2cccc(S(=O)(=O)N3CCCC3)c2)C1 (stereo not given) | inactive | 
57 | CC(=O)c1c(C)nc2ccc(Br)cc2c1C(=O)O | inactive | 
58 | COC(=O)C1=C(c2cccc(C#N)c2)C[C@@H]2CC[C@H]1N2C(=O)N1CCC(C)CC1 | inconclusive: 10.4 µM [inhibitor, single point] | 
59 | Cn1nnc(NC(=S)NC(=O)c2cc3ccccc3o2)n1 | inconclusive: 14.7 µM [inhibitor, single point] | 
60 | Cc1cc(O)c(-c2cc(C(=O)Nc3sc4c(c3C(=O)NCc3ccco3)CCC4)[nH]n2)cc1C | active: 1.85 µM | 
61 | CCN(CC)c1ccc(NC(=S)NCC2CCCO2)cc1 (stereo not given) | inconclusive: 11.7 µM [inhibitor, single point] | 
62 | Cc1nnc(SCC(=O)NC(C)(C)C)n1C1CCCCC1 | inactive | 
63 | CC(O)c1nc2ccccc2n1CCCCOc1ccccc1 (stereo not given) | inconclusive: 18.5 µM [inhibitor, single point] | 
64 | Cc1cc(C(=O)NP(=O)(N2CCOCC2)N2CCOCC2)c(C)n1-c1ccc(N(C)C)cc1 | inconclusive: 8.28 µM [inhibitor, partial curve] | 
65 | COc1ccccc1NC(=O)Nc1cc(C(C)(C)C)nn1C | inconclusive: 6.57 µM [inhibitor, partial curve] | 
66 | O=C(NC1CCN(Cc2ccccc2)CC1)c1ccc(N2CC3CC(C2)c2cccc(=O)n2C3)c([N+](=O)[O-])c1 (stereo not given) | inconclusive: 0.828 µM [inhibitor, partial curve, poor fit] | 
67 | Cc1cccc(CNCCc2c[nH]c3ccccc23)c1 | inconclusive: 14.7 µM [inhibitor, single point] | 
68 | O=c1[nH]c2cc3c(cc2cc1CN(Cc1cccnc1)C(=S)NCc1ccco1)OCO3 | inconclusive: 18.5 µM [inhibitor, partial curve, poor fit] | 
69 | C(=Nc1cccc2c(N=Cc3ccco3)cccc12)c1ccco1 | inactive | 
70 | COc1ccc(CC(=O)NC2=NCCS2)cc1 | inactive | 
71 | Cc1ccc(NC(=O)CSc2ccc(-c3ccccn3)nn2)cc1 | inconclusive: 5.22 µM [inhibitor, partial curve, poor fit] | 
72 | Cc1ccccc1Nc1nnc(SCC(=O)c2cc3ccccc3o2)s1 | inconclusive: 10.4 µM [inhibitor, single point] | 
73 | CCn1cc(/C=C(\NC(=O)c2ccc(OC)c(OC)c2)C(=O)N2CCN(C)CC2)c2ccccc21 | active: 10.4 µM | 
74 | CCCC(C)NC(=O)c1ccccc1SC (stereo not given) | inconclusive: 18.5 µM [inhibitor, partial curve, poor fit] | 
75 | CC(=O)/C(=N\Nc1ccccc1)Sc1cccc2cccnc12 | inconclusive: 1.17 µM [inhibitor, single point] | 

Source: PubChem BioAssay AID504834 (National Center for Advancing Translational Sciences (NCATS), 2011)
